Assay results reported in patent US11753388B2, “Composition for inhibiting alpha-glucosidase and application thereof” (ZHENGZHOU FRUIT RESEARCH INSTITUTE, CHINESE ACADEMY OF …, priority 2021, dated 2023).
For at least one compound, name, drawing or mass did not settle the structure.

Test system: α-glucosidase
Test: in vitro α-glucosidase inhibition test (pNPG substrate, OD 405 nm); combination index by Chou-Talalay method with CompuSyn
Format: biochemical, Saccharomyces cerevisiae
Details: single compound, 100 μg/mL
Experimental: α-glucosidase (coming from Saccharomyces cerevisiae, Sigma);
an α-glucosidase solution with a concentration being 0.25 U/mL and a substrate p-nitrophenyl-α-D-glucopyranoside (pNPG) solution with a concentration being […] were prepared by using a PBS buffer solution (0.1 mol L−1 pH 6.8).
40 μL α-glucosidase solution was accurately removed, 100 μL of sample solution to be tested was added respectively, reacted for 10 min at 37° C., then 60 μL of substrate p-nitrophenyl-α-D-glucopyranoside (pNPG) solution was added, reacted for 15 min at 37° C., and an enzyme-linked analyzer measured at a wavelength of 405 nm.
First, daidzein, taxifolin, and 3-O-methyl quercetin were respectively prepared into 10 mg/mL mother solutions by using dimethyl sulfoxide (DMSO); and then a sample solution of the specific concentration of the daidzein, taxifolin, and 3-O-methyl quercetin and composition was prepared with PBS buffer solution.

SMILES: COc1ccc(-c2cc(=O)c3c(O)cc(O)cc3o2)cc1O [Diosmetin]
- Inhibition rate: 43.0 ± 2.1%
